Source: PubChem BioAssay AID1259405 (NCATS, 2018)

Assay: 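Mouse-designed siRNAs used to find CHO productivity engineering targets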 (primary screen)
System: Chinese hamster CHO-K1 ovary cells with stable secreted eGFP expression
Reagents: single siRNA against mouse genes, 0.8 pmol siRNA per well (2 µl of 400 nM stock)
Duration: 3 days
Read-out: 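Percent of the per-plate non-targeting control median for intracellular GFP per well by laser scanning cytometry and for cell viability by ATP luminescence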
Scale: GFP, % of control: higher = more GFP per well, higher productivity; viability (ATP), % of control: higher = more viable cells (more ATP)
Rule for the call: 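a knock-down is called active if GFP reaches 120% or more of non-targeting control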
Shown is one part, drawn at random, of about 50,000 reagents. Over the whole deposit, about 4,000 (8%) got an active call. 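Mouse siRNA library applied to hamster cells; one well for each siRNA.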 Entries without a mark were called inactive. The numbers tell different reagents against one gene apart.

For Ifngr2 #1, what does the deposit list?
GFP, % of control: 98; viability (ATP), % of control: 119

How did the screen score Ifngr2 #2?
GFP, % of control: 73; viability (ATP), % of control: 62.5

With Ifngr2 #3, how do the results read?
GFP, % of control: 63.2; viability (ATP), % of control: 81.7

How did the screen score Zfp810 #1?
GFP, % of control: 55; viability (ATP), % of control: 50.3

Which result is listed for Zfp810 #2?
GFP, % of control: 89.1; viability (ATP), % of control: 70.3

What did the screen give for Zfp810 #3?
GFP, % of control: 92; viability (ATP), % of control: 87.8

How did the screen score Cep83 #1?
GFP, % of control: 107; viability (ATP), % of control: 73.9

Which result is listed for Cep83 #2?
GFP, % of control: 61.1; viability (ATP), % of control: 47.6

With Cep83 #3, what was measured?
GFP, % of control: 90.6; viability (ATP), % of control: 113

With Tec #1, how do the results read?
GFP, % of control: 110; viability (ATP), % of control: 89.6

How did the screen score Tec #2?
GFP, % of control: 59.6; viability (ATP), % of control: 56.9

What is on record for Tec #3?
GFP, % of control: 114; viability (ATP), % of control: 68

Targets listed so far whose gene name begins with Z or z:
Zfp810 #1 | GFP, % of control: 55; viability (ATP), % of control: 50.3
Zfp810 #2 | GFP, % of control: 89.1; viability (ATP), % of control: 70.3
Zfp810 #3 | GFP, % of control: 92; viability (ATP), % of control: 87.8

Next records follow:
How did the screen score Zfp979 #1?
GFP, % of control: 100; viability (ATP), % of control: 94.6

What did the screen give for Zfp979 #2?
GFP, % of control: 64.1; viability (ATP), % of control: 51.6

For Zfp979 #3, what was measured?
GFP, % of control: 86.7; viability (ATP), % of control: 82.4

For Or13a19 #1, what was measured?
GFP, % of control: 22.6; viability (ATP), % of control: 23.7

Which result is listed for Or13a19 #2?
GFP, % of control: 84.4; viability (ATP), % of control: 79.3

Which result is listed for Or13a19 #3?
GFP, % of control: 40.5; viability (ATP), % of control: 87
